Measured values taken from patent US20200354426A1 (MEDIMMUNE LIMITED, priority 2016, published 2020).
pEC50: −log10 of the molar value. For part of these data: At least one peptide structure holds a part that was inferred or is arguable (an end, a ring closure or a residue). For part of these data: At least one compound was matched to its structure with a doubt left. Numbered stars: 1 amine (or outer) side, 2 acyl side, 3 side chain; on linkers, the order of the positions; unused ones are H or OH. Side chains are listed from the residue outwards. Peptide text beside a SMILES is read from it. * marks the point of attachment. γGlu = O=C(O)[C@H](CCC(=O)[*:2])N[*:1]; Palmitoyl = CCCCCCCCCCCCCCCC(=O)*

Amino acid sequences for entries named in this document (tags omitted). Residues count along the entry.
UniProt Q61606, 27-485: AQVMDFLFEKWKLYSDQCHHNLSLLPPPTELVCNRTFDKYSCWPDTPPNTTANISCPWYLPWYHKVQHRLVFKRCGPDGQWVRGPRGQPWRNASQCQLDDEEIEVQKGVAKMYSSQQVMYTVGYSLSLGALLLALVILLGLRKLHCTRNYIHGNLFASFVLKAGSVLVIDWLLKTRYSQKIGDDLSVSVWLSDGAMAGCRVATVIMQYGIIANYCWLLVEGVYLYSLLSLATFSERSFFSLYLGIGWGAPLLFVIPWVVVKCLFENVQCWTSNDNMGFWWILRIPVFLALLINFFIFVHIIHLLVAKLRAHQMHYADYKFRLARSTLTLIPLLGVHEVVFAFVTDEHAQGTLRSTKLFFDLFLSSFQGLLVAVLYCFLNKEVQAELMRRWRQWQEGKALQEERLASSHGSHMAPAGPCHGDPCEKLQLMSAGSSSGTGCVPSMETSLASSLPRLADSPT
UniProt P47871, 26-477: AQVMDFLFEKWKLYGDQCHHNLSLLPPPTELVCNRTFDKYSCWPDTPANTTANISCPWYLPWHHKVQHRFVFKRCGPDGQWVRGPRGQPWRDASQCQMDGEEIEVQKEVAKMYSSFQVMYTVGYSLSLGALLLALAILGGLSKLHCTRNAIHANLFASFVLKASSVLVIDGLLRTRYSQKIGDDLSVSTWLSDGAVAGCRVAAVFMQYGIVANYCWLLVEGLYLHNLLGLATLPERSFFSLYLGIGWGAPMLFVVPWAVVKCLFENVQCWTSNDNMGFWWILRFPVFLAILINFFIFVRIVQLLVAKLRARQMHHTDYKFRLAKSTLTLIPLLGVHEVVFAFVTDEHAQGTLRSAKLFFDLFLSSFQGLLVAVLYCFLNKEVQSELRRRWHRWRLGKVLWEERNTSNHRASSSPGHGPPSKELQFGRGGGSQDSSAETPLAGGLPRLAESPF
UniProt P43220, 24-463: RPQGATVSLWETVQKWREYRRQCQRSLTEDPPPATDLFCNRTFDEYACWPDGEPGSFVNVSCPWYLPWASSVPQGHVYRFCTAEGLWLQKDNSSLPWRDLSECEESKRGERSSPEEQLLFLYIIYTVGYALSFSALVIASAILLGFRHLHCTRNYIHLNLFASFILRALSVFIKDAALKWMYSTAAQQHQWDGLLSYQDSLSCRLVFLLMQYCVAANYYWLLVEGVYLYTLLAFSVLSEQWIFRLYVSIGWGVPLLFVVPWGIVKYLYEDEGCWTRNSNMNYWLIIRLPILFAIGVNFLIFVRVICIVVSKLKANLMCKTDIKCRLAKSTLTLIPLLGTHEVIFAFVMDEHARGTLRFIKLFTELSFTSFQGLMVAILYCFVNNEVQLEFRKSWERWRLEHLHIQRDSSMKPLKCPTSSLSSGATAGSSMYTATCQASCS

How the values were obtained:
[1] = tested on: diet induced obesity (DIO) mouse model; test: Diet induced obesity (DIO) mouse model, study A; format: in vivo
Text: (§1) Female C57/B16JHsdOla (obtained from Harlan Laboratories. UK) were started on a high fat diet of D12492 (Research Diets, NJ, USA) and a chocolate confection, delicato ball (Delicata Bakverk, Sweden) at 9-11 weeks of age, and were maintained on the diet for 16 weeks prior to arrival to the animal facility, during a three week acclimation period and during drug treatment, caloric content of the two components of the diet is shown in Table 11. The mice were divided into 9 groups (n=5-6), and treatment was started at 29 weeks of age.
(§2) The body weight of the animals was monitored daily throughout the dosing period. At day 14, blood samples for the measurement of plasma glucose and insulin from conscious mice were obtained after a 4-hour fasting period. Mice were then anaesthetized using isoflurane and terminal blood was collected from the capillary bed behind the eye. The following parameters were measured: blood chemistry measurements of triglycerides, total cholesterol, non-esterified fatty acids (NEFA), beta-hydroxybutyrate and fibroblast growth factor 21 (FGF21) (Tables 14 and 15 below).

[2] = tested on: diet induced obesity (DIO) mouse model; test: Diet induced obesity (DIO) mouse model, study B; format: in vivo
Text: as §1
as §2, with “isoflourane” for “isoflurane”, “(Table 16” for “(Tables 14”, “Table 17” for “15”

Mouse GlucR = biological target: T1, Mouse GlucR (Mus musculus, UniProt Q61606); test: cAMP assay in 3.2% mouse serum albumin (assay 2); format: cell-based; conditions: relative potencies vs natural ligands
T1 construct: expressed in transfected cells

Human GlucR [3] = biological target: T2, Human GlucR (Homo sapiens, UniProt P47871); test: cAMP assay in 4.4% human serum albumin (assay 2); format: cell-based; conditions: relative potency GlucR / relative potency GLP1R vs natural ligands
T2 construct: expressed in transfected cells
Method: Cryopreserved cell stocks were prepared in 1× cell freezing medium-DMSO serum free (Sigma Aldrich) at 2×10^7/vial and stored at −80° C. […] Peptides were serially diluted in DMSO and then diluted 100 fold into DMEM containing serum albumin at stated final concentration. […] Cells were added to the assay plates and incubated for 30 min at room temperature. Following incubation the assay was stopped and cAMP levels measured using the HTRF® dynamic d2 cAMP assay kit available from CisBio Bioassays, as per the manufacture's guidelines. Plates were read on Perkin Elmer ENVISION® fluorescence plate readers. Human and rat serum albumin were purchased from Sigma Aldrich and mouse serum albumin from Equitech Bio Ltd.
Data was transformed to % Delta F as described in manufacturer's guidelines and analysed by 4-parameter logistic fit to determine EC50 values. […] For instance. […] To compare the balance of activities at the GLP1R and GlucR between different peptides and across different conditions, these can be correlated using the calculation below, where the EC50's are related to those of the natural ligands.

Human GlucR [4] = biological target: T2, Human GlucR; test: cAMP activity assay in assay medium (assay 1); format: cell-based; conditions: Table 4, read-out: hGlucR EC50
Text: (§3) Biological Activity of Peptides in Cell-Based cAMP Activity Assay (Assay 1):
(§4) All sample dilutions were made in duplicate.

Human GIPr = biological target: T3, Human GIPr (Homo sapiens, UniProt P48546); test: cAMP activity assay in assay medium (assay 1); format: cell-based; conditions: Table 4, read-out: hGIPR EC50
T3 construct: expressed in transfected cells
T3 sequence (P48546 22-466): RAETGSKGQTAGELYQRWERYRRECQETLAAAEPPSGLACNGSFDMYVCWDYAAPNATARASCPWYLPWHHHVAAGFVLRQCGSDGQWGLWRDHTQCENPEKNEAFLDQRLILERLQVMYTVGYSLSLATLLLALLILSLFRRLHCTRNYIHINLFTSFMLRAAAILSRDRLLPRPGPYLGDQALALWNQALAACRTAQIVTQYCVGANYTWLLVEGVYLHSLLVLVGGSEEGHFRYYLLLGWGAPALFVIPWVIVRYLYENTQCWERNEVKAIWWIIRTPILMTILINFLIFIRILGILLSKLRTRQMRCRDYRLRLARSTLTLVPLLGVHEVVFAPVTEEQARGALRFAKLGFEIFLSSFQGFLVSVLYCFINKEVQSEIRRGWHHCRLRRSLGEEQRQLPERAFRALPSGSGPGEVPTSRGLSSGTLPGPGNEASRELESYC
Text: as §3, §4

Human GLP1R = Human GLP1R (Homo sapiens, UniProt P43220); test: cAMP activity assay in assay medium (assay 1); format: cell-based; parameters: expressed in transfected cells; conditions: Table 4, read-out: hGLP1R EC50
Text: as §3, §4

[5] = 27 nmol/kg sc twice daily 14 days
[6] = 27 nmol/kg sc twice daily, day 14
[7] = 27 nmol/kg sc twice daily, day 14, 4-hour fasting
[8] = dose printed in Table 17: 27 nmol/kg, day 14

CCCCCCCCCCCCCCCC(=O)N[C@@H](CCC(=O)NCCCC[C@H](NC(=O)[C@H](C)NC(=O)[C@H](C)NC(=O)[C@H](CCC(N)=O)NC(=O)CNC(=O)[C@H](CCC(=O)O)NC(=O)[C@H](CC(C)C)NC(=O)[C@H](Cc1ccc(O)cc1)NC(=O)[C@H](CO)NC(=O)[C@H](CO)NC(=O)[C@@H](NC(=O)[C@H](CC(=O)O)NC(=O)[C@H](CO)NC(=O)[C@@H](NC(=O)[C@H](Cc1ccccc1)NC(=O)[C@@H](NC(=O)CNC(=O)[C@H](CCC(=O)O)NC(=O)[C@H](C)NC(=O)[C@@H](N)Cc1cnc[nH]1)[C@@H](C)O)[C@@H](C)O)C(C)C)C(=O)N[C@@H](CCC(=O)O)C(=O)N[C@@H](Cc1ccccc1)C(=O)N[C@H](C(=O)N[C@@H](C)C(=O)N[C@@H](Cc1c[nH]c2ccccc12)C(=O)N[C@@H](CC(C)C)C(=O)N[C@H](C(=O)N[C@@H](CCCNC(=N)N)C(=O)NCC(=O)N[C@@H](CCCNC(=N)N)C(=O)NCC(=O)O)C(C)C)[C@@H](C)CC)C(=O)O [Liraglutide, reference compound]
BW day 14 (% change of vehicle mean) [1, 5]: −13.3% | BeHy [1, 6]: 345 µmol/L | FGF21 [1, 6]: 2481 pg/mL | HOMA [1, 6]: 2.8 | Hepatic TG [1, 6]: 13.1 g TB/100 g tissue | Plasma Cholesterol [1, 6]: 3.75 mM | Plasma NEFA [1, 6]: 0.24 Mm | Plasma TG [1, 6]: 0.24 mM | Glucose [1, 7]: 8.0 mM | Insulin [1, 7]: 0.3 nM | BW day 14 (% change of vehicle mean) [2, 5]: −14% | HOMA [2, 6]: 2.51 | Glucose [2, 7]: 7.7 mM | Insulin [2, 7]: 0.31 nM | BeHy [2, 8]: 572.25 µmol/L | FGF21 [2, 8]: 2990 pg/mL | Hepatic TG [2, 8]: 18.4 g TB/100 g tissue | Plasma NEFA [2, 8]: 0.29 mM | Plasma TG [2, 8]: 0.28 mM

CCCCCCCCCCCCCCCC(=O)N[C@@H](CCC(=O)NCCCC[C@H](NC(=O)[C@H](CO)NC(=O)[C@H](CC(=O)O)NC(=O)[C@H](CC(C)C)NC(=O)[C@H](Cc1ccc(O)cc1)NC(=O)[C@H](CCCCN)NC(=O)[C@H](CO)NC(=O)[C@H](Cc1ccc(O)cc1)NC(=O)[C@H](CC(=O)O)NC(=O)[C@H](CO)NC(=O)[C@@H](NC(=O)[C@H](Cc1ccccc1)NC(=O)[C@@H](NC(=O)CNC(=O)[C@H](CCC(N)=O)NC(=O)CNC(=O)[C@@H](N)Cc1c[nH]cn1)[C@@H](C)O)[C@@H](C)O)C(=O)N[C@@H](CCCNC(=N)N)C(=O)N[C@@H](C)C(=O)N[C@@H](CCC(N)=O)C(=O)N[C@@H](CC(=O)O)C(=O)N[C@@H](Cc1ccccc1)C(=O)N[C@H](C(=O)N[C@@H](CCC(N)=O)C(=O)N[C@@H](Cc1c[nH]c2ccccc12)C(=O)N[C@@H](CC(C)C)C(=O)N[C@H](C(=O)N[C@@H](C)C(=O)NCC(=O)NCC(N)=O)C(C)C)C(C)C)C(=O)O [Peptide G380]
Mouse GlucR/GLP1R Ratio (Mouse GlucR): 0.006 | Human GlucR/GLP1R Ratio (Human GlucR [3]): 0.013

CCCCCCCCCCCCCCCC(=O)N[C@@H](CCC(=O)NCCCC[C@H](NC(=O)[C@H](Cc1ccc(O)cc1)NC(=O)[C@H](CCCCN)NC(=O)[C@H](CO)NC(=O)[C@H](Cc1ccc(O)cc1)NC(=O)[C@H](CC(=O)O)NC(=O)[C@H](CO)NC(=O)[C@@H](NC(=O)[C@H](Cc1ccccc1)NC(=O)[C@@H](NC(=O)CNC(=O)[C@H](CCC(N)=O)NC(=O)[C@H](CO)NC(=O)[C@@H](N)Cc1c[nH]cn1)[C@@H](C)O)[C@@H](C)O)C(=O)N[C@@H](CC(=O)O)C(=O)N[C@@H](CO)C(=O)N[C@@H](CCCNC(=N)N)C(=O)N[C@@H](CCCNC(=N)N)C(=O)N[C@@H](C)C(=O)N[C@@H](CCCNC(=N)N)C(=O)N[C@@H](CC(=O)O)C(=O)N[C@@H](Cc1ccccc1)C(=O)N[C@H](C(=O)N[C@@H](C)C(=O)N[C@@H](Cc1c[nH]c2ccccc12)C(=O)N[C@@H](CC(C)C)C(=O)N[C@@H](CCC(=O)O)C(=O)N[C@@H](C)C(N)=O)C(C)C)C(=O)O [g804] (H-HSQGTFTSDYSKYK([γGlu-Palmitoyl])DSRRARDFVAWLEA-NH2; N-terminus assumed)
pEC50 (Human GlucR [4]): 11.71 | pEC50 (Human GIPr): 8.00 | pEC50 (Human GLP1R): 10.15

CCCCCCCCCCCCCCCC(=O)N[C@@H](CCC(=O)NCCCC[C@H](NC(=O)[C@H](Cc1ccc(O)cc1)NC(=O)[C@H](CCCNC(=N)N)NC(=O)[C@H](CO)NC(=O)[C@H](Cc1ccc(O)cc1)NC(=O)[C@H](CC(=O)O)NC(=O)[C@H](CO)NC(=O)[C@@H](NC(=O)[C@H](Cc1ccccc1)NC(=O)[C@@H](NC(=O)CNC(=O)[C@H](CCC(N)=O)NC(=O)[C@H](CO)NC(=O)[C@@H](N)Cc1c[nH]cn1)[C@@H](C)O)[C@@H](C)O)C(=O)N[C@@H](CC(=O)O)C(=O)N[C@@H](CO)C(=O)N[C@@H](CCCNC(=N)N)C(=O)N[C@@H](CO)C(=O)N[C@@H](C)C(=O)N[C@@H](CCCNC(=N)N)C(=O)N[C@@H](CC(=O)O)C(=O)N[C@@H](Cc1ccccc1)C(=O)N[C@H](C(=O)N[C@@H](C)C(=O)N[C@@H](Cc1c[nH]c2ccccc12)C(=O)N[C@@H](CC(C)C)C(=O)N[C@@H](CCC(=O)O)C(=O)N[C@@H](C)C(N)=O)C(C)C)C(=O)O [g850] (H-HSQGTFTSDYSRYK([γGlu-Palmitoyl])DSRSARDFVAWLEA-NH2; N-terminus assumed)
pEC50 (Human GlucR [4]): 11.66 | pEC50 (Human GIPr): 8.05 | pEC50 (Human GLP1R): 10.67
